Measurements reported in PubChem BioAssay AID493246 (Drosophila RNAi Screening Center, 2011).

- Purpose: 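Genes fly cells need to grow and stay alive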 (primary screen)
- Cells: Drosophila Kc and S2R+ cells
- Knock-down reagent: long dsRNA against Drosophila genes
- Read-out: 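Cell number per well after knock-down, printed as raw plate values; calls were based on per-plate z-scores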
- Reading the numbers: Kc cell number and S2R+ cell number: higher = more cells remaining
- Call rule: 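Counted as a hit if cell number falls by a z-score of at least 3 within its plate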
The screen tested about 21,000 reagents; this is an unselected part of those with a known target gene and a result. In the full data, 429 (2%) got an active call. 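Values are raw and not normalised between plates; calls rest on per-plate z-scores that were not deposited.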 No sequences are given here. The record does not give: the amount of reagent, the time to read-out.

target | DRSC id | Kc cell number, rep 1 | Kc cell number, rep 2 | S2R+ cell number, rep 1 | S2R+ cell number, rep 2 | activity call
CG33158 | DRSC09709 | 1.55e6 | 1.79e6 | 1.41e6 | 1.47e6 | inactive
CG33158 | DRSC10438 | 1.35e6 | 1.38e6 | 1.23e6 | 1.35e6 | inactive
Ect3 (Ectoderm-expressed 3) | DRSC15462 | 1.93e6 | 1.97e6 | 1.37e6 | 1.47e6 | inactive
CG11722 | DRSC14358 | 1.73e6 | 1.65e6 | 1.19e6 | 1.34e6 | inactive
ppk25 (pickpocket 25) | DRSC04973 | 1.49e6 | 1.63e6 | 1.20e6 | 1.39e6 | inactive
CG15535 | DRSC15071 | 1.44e6 | 1.49e6 | 1.01e6 | 1.09e6 | inactive
CG10348 | DRSC02043 | 1.71e6 | 1.73e6 | 1.20e6 | 2.23e5 | inactive
RpS17 (Ribosomal protein S17) | DRSC11271 | 1.04e6 | 1.12e6 | 8.54e5 | 9.67e5 | inactive
CG2991 | DRSC00559 | 1.26e6 | 1.28e6 | 8.41e5 | 9.16e5 | inactive
CG13978 | DRSC14720 | 1.54e6 | 1.55e6 | 1.10e6 | 1.18e6 | inactive
Septin1 (Septin 1) | DRSC20573 | 1.49e6 | 1.48e6 | 9.98e5 | 1.14e6 | inactive
CG9993 | DRSC04599 | 1.56e6 | 1.68e6 | 1.24e6 | 4.54e5 | inactive
CG43127 | DRSC09039 | 1.35e6 | 1.39e6 | 1.07e6 | 1.26e6 | inactive
CG12640 | DRSC17847 | 1.60e6 | 1.64e6 | 9.74e5 | 1.13e6 | inactive
CG6966 | DRSC16156 | 1.19e6 | 1.19e6 | 1.16e6 | 1.23e6 | inactive
rha | DRSC17044 | 5.51e5 | – | 8.58e5 | – | inactive
Pig1 (Pre-intermoult gene 1) | DRSC18698 | 1.70e6 | 1.72e6 | 9.08e5 | 9.89e5 | inactive
Rca1 (Regulator of cyclin A1) | DRSC03407 | 9.36e5 | 1.08e6 | 3.90e5 | 5.13e5 | inactive

A portion of the results above, for reference:
target | DRSC id | Kc cell number, rep 1 | Kc cell number, rep 2 | S2R+ cell number, rep 1 | S2R+ cell number, rep 2 | activity call
CG10348 | DRSC02043 | 1.71e6 | 1.73e6 | 1.20e6 | 2.23e5 | inactive
RpS17 (Ribosomal protein S17) | DRSC11271 | 1.04e6 | 1.12e6 | 8.54e5 | 9.67e5 | inactive
CG2991 | DRSC00559 | 1.26e6 | 1.28e6 | 8.41e5 | 9.16e5 | inactive
CG13978 | DRSC14720 | 1.54e6 | 1.55e6 | 1.10e6 | 1.18e6 | inactive

The listing continues:
target | DRSC id | Kc cell number, rep 1 | Kc cell number, rep 2 | S2R+ cell number, rep 1 | S2R+ cell number, rep 2 | activity call
LIMK1 (LIM domain kinase 1) | DRSC19811 | 5.89e5 | – | 8.89e5 | – | inactive
MCTS1 (Malignant T cell amplified sequence 1) | DRSC18393 | 6.02e5 | – | 9.44e5 | – | inactive
CG4004 | DRSC19791 | 6.04e5 | – | 8.53e5 | – | inactive
CG4004 | DRSC19882 | 1.61e6 | 1.57e6 | 1.05e6 | 1.13e6 | inactive
pod1 (pod1 coronin) | DRSC18362 | 5.77e5 | – | 9.09e5 | – | inactive
Tps1 (Trehalose-6-phosphate synthase 1) | DRSC00269 | 1.38e6 | 1.34e6 | 9.81e5 | 1.01e6 | inactive
toe (twin of eyg) | DRSC09174 | 1.56e6 | 1.64e6 | 1.21e6 | 1.37e6 | inactive
toe (twin of eyg) | DRSC09783 | 1.81e6 | 1.74e6 | 1.22e6 | 1.27e6 | inactive
tra (transformer) | DRSC11405 | 1.23e6 | 1.38e6 | 1.25e6 | 1.31e6 | inactive
CG1773 | DRSC06688 | 1.36e6 | 1.37e6 | 1.05e6 | 1.15e6 | inactive
janA (janus A) | DRSC16972 | 1.64e6 | 1.76e6 | 1.13e6 | 1.20e6 | inactive
Obp99d (Odorant-binding protein 99d) | DRSC15046 | 1.40e6 | 1.43e6 | 9.33e5 | 1.04e6 | inactive
CG9205 | DRSC08642 | 1.32e6 | 1.34e6 | 1.20e6 | 1.14e6 | inactive
CG12020 | DRSC08226 | 1.36e6 | 1.38e6 | 1.10e6 | 1.23e6 | inactive
eIF3g2 (eukaryotic translation initiation factor 3 subunit g2) | DRSC14275 | 1.33e6 | 1.31e6 | 9.71e5 | 9.86e5 | inactive
CG12547 | DRSC07759 | 1.32e6 | 1.35e6 | 9.71e5 | 1.22e6 | inactive
MTF-1 (Metal response element-binding Transcription Factor-1) | DRSC08983 | 1.67e6 | 1.63e6 | 1.21e6 | 1.35e6 | inactive
MTF-1 (Metal response element-binding Transcription Factor-1) | DRSC11217 | 1.50e6 | 1.59e6 | 1.05e6 | 1.14e6 | inactive
SkpB (SKP1-related B) | DRSC07683 | 1.64e6 | 1.68e6 | 1.25e6 | 1.38e6 | inactive
Ilp6 (Insulin-like peptide 6) | DRSC17906 | 1.49e6 | 1.49e6 | 1.00e6 | 1.10e6 | inactive
beat-Ib (beaten path Ib) | DRSC03490 | 1.59e6 | 1.63e6 | 1.26e6 | 1.43e6 | inactive
Spn77Ba (Serpin 77Ba) | DRSC10693 | 1.50e6 | 1.54e6 | 1.28e6 | 1.30e6 | inactive
